PubChem BioAssay AID686938 – Drosophila RNAi Screening Center, 2013

- Assay: 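Looking for CRAC channel components and the factors controlling them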 (primary screen)
- Cell system: Drosophila S2R+ cells
- Reagents: long dsRNA against Drosophila genes, about 0.25 µg dsRNA per well, roughly 10,000 cells
- Duration: 5 days of knock-down before the calcium assay
- Treatment: thapsigargin (SERCA pump blocker) to empty calcium stores; entry signal taken 4 min after adding it
- Read-out: 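Per-well fluo-4 fluorescence in two replicates, unnormalised, measured in resting cells and 4 min after store depletion by the SERCA blocker thapsigargin; ratio of the two present in few wells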
- Reading the numbers: calcium entry signal: higher = stronger calcium signal after store depletion; resting calcium signal: higher = higher resting calcium signal
- Units: calcium entry signal in fluorescence units; resting calcium signal in fluorescence units
- Call rule: 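Hit if the duplicate-averaged plate z-score for entry over resting signal is under −3; wells with weak total dye signal (Fmax z < −2) or more than 5 off-targets removed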
- Meaning of the calls: active = strongly reduced calcium entry; inactive = no strong reduction
The deposit covers about 23,000 reagents; below is a random part of those that have a named target and a result. Of all reagents, 75 (0.33%) were called active. 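Raw plate signals without normalisation; calls rest on plate z-scores that were not deposited; ratio present for only 364 wells.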 A plus sign joins genes that one reagent is predicted to hit. Not stated in the record: the dose of the treatment.

The opening 2 entries as a preview:
Wdr59 (WD repeat domain 59) [DRSC02771]
- calcium entry signal, replicate 1: 5.77e7
- resting calcium signal, replicate 1: 2.56e7
- call: inactive

CG15024 [DRSC08478]
- calcium entry signal, replicate 1: 2.54e7
- calcium entry signal, replicate 2: 4.61e7
- resting calcium signal, replicate 1: 1.27e7
- resting calcium signal, replicate 2: 1.98e7
- call: inactive

The list itself, repeating the preview:
Wdr59 (WD repeat domain 59) [DRSC02771]
- calcium entry signal, replicate 1: 5.77e7
- resting calcium signal, replicate 1: 2.56e7
- call: inactive

CG15024 [DRSC08478]
- calcium entry signal, replicate 1: 2.54e7
- calcium entry signal, replicate 2: 4.61e7
- resting calcium signal, replicate 1: 1.27e7
- resting calcium signal, replicate 2: 1.98e7
- call: inactive

CG11560 [DRSC09843]
- calcium entry signal, replicate 1: 4.83e7
- calcium entry signal, replicate 2: 4.00e7
- resting calcium signal, replicate 1: 3.40e7
- resting calcium signal, replicate 2: 1.77e7
- call: inactive

Elp1 (Elongator complex protein 1) [DRSC14250]
- calcium entry signal, replicate 1: 2.82e7
- calcium entry signal, replicate 2: 3.04e7
- resting calcium signal, replicate 1: 1.30e7
- resting calcium signal, replicate 2: 1.41e7
- call: inactive

CG13742 + CNT1 [DRSC06413]
- calcium entry signal, replicate 1: 3.16e7
- calcium entry signal, replicate 2: 3.72e7
- resting calcium signal, replicate 1: 1.44e7
- resting calcium signal, replicate 2: 1.70e7
- call: inactive

Polr3A (RNA polymerase III subunit A) [DRSC19766]
- calcium entry signal, replicate 1: 2.62e7
- calcium entry signal, replicate 2: 2.11e7
- resting calcium signal, replicate 1: 1.45e7
- resting calcium signal, replicate 2: 1.02e7
- call: inactive

CG4661 [DRSC19910]
- calcium entry signal, replicate 1: 3.60e7
- calcium entry signal, replicate 2: 5.79e7
- resting calcium signal, replicate 1: 1.78e7
- resting calcium signal, replicate 2: 2.66e7
- call: inactive

CG6503 [DRSC16056]
- calcium entry signal, replicate 1: 3.90e7
- calcium entry signal, replicate 2: 4.58e7
- resting calcium signal, replicate 1: 2.00e7
- resting calcium signal, replicate 2: 2.20e7
- call: inactive

CG1631 [DRSC20535]
- calcium entry signal, replicate 1: 5.56e7
- calcium entry signal, replicate 2: 5.02e7
- resting calcium signal, replicate 1: 2.61e7
- resting calcium signal, replicate 2: 2.02e7
- call: inactive

CG30369 [DRSC21996]
- calcium entry signal, replicate 1: 2.77e7
- calcium entry signal, replicate 2: 4.94e7
- resting calcium signal, replicate 1: 1.46e7
- resting calcium signal, replicate 2: 2.24e7
- call: inactive

CG12991 [DRSC19511]
- calcium entry signal, replicate 1: 2.20e7
- calcium entry signal, replicate 2: 2.37e7
- resting calcium signal, replicate 1: 1.20e7
- resting calcium signal, replicate 2: 1.06e7
- call: inactive

Fbp2 (Fat body protein 2) [DRSC03327]
- calcium entry signal, replicate 1: 4.38e7
- resting calcium signal, replicate 1: 1.99e7
- call: inactive
